From the supplement of paper PMC4604168 (melanoma cell lines)
Some of the results follow. Repeats are few or missing, and single values can be far off.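 Cells were imaged in 1,536-well plates, and nuclei stained with an antibody against cleaved PARP were counted against all DNA-stained nuclei to give the apoptosis fraction. Screening doses were chosen to leave most cells alive, and resting and induced cleaved-PARP levels differ strongly between cell lines.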

Key:
Test in all cases: cleaved PARP positive nuclei fraction relative to DMSO control; melanoma cells; higher = more apoptosis
Details in all cases: library dose: low library concentration; 72 h
A101D = tested on: A101D
A2058 = tested on: A2058
A375 = tested on: A375
C32 = tested on: C32
CBRC008 = tested on: CBRC008 (line from a melanoma biopsy)
CBRC014 = tested on: CBRC014 (line from a melanoma biopsy)
CBRC016 = tested on: CBRC016 (line from a melanoma biopsy)
CBRC017 = tested on: CBRC017 (line from a melanoma biopsy)
CBRC034 = tested on: CBRC034 (line from a melanoma biopsy)
COLO792 = tested on: COLO792
COLO800 = tested on: COLO800
COLO829 = tested on: COLO829
G361 = tested on: G361
IPC-298 = tested on: IPC-298
IST-MEL1 = tested on: IST-MEL1
LOXIMVI = tested on: LOXIMVI
MEL-HO = tested on: MEL-HO

Compound | cleaved PARP positive nuclei fraction (A101D) | cleaved PARP positive nuclei fraction (A2058) | cleaved PARP positive nuclei fraction (A375) | cleaved PARP positive nuclei fraction (C32) | cleaved PARP positive nuclei fraction (CBRC008) | cleaved PARP positive nuclei fraction (CBRC014) | cleaved PARP positive nuclei fraction (CBRC016) | cleaved PARP positive nuclei fraction (CBRC017) | cleaved PARP positive nuclei fraction (CBRC034) | cleaved PARP positive nuclei fraction (COLO792) | cleaved PARP positive nuclei fraction (COLO800) | cleaved PARP positive nuclei fraction (COLO829) | cleaved PARP positive nuclei fraction (G361) | cleaved PARP positive nuclei fraction (IPC-298) | cleaved PARP positive nuclei fraction (IST-MEL1) | cleaved PARP positive nuclei fraction (LOXIMVI) | cleaved PARP positive nuclei fraction (MEL-HO)
Nc1nc(F)nc2c1ncn2[C@@H]1O[C@H](CO)[C@@H](O)[C@@H]1O [fludarabine] + Cn1nnc2c(C(N)=O)ncn2c1=O [temozolomide] (first compound 0.2 µM, partner dose 2 µM) | 91.8% | 120% | 9070% | 69.8% | 52.6% | 125% | 241% | 93.3% | 127% | 52.6% | 57.3% | 155% | 258% | 98.3% | 37.7% | 58.8% | 119%
CO[C@H]1C[C@@H]2CC[C@@H](C)[C@@](O)(O2)C(=O)C(=O)N2CCCC[C@H]2C(=O)O[C@H]([C@H](C)C[C@@H]2CC[C@@H](OCCO)[C@H](OC)C2)CC(=O)[C@H](C)/C=C(\C)[C@@H](O)[C@@H](OC)C(=O)[C@H](C)C[C@H](C)/C=C/C=C/C=C/1C [everolimus] + COCC[n+]1c2c(n(Cc3cnccn3)c1C)C(=O)c1ccccc1C2=O [YM155] (first compound 0.02 µM, partner dose 0.0004 µM) | 125% | 99.9% | 275% | 100% | 319% | 108% | 126% | 178% | 222% | 122% | 236% | 262% | 176% | 142% | 78.5% | 142% | 145%
Nc1ncn([C@H]2C[C@H](O)[C@@H](CO)O2)c(=O)n1 [decitabine] + COc1ccc(COc2ccc(Cc3cnc(N)nc3N)cc2OC)cc1 [GW2580] (first compound 0.1 µM, partner dose 1 µM) | 30.4% | 143% |  | 79.4% | 52.7% | 122% | 135% | 101% |  | 245% | 71.1% | 68.3% | 114% | 303% | 149% | 51.2% | 
C[C@@H](Oc1cc(-c2cnn(C3CCNCC3)c2)cnc1N)c1c(Cl)ccc(F)c1Cl [Crizotinib] + C=CCNC1=C2C[C@@H](C)C[C@H](OC)[C@H](O)[C@@H](C)/C=C(\C)[C@H](OC(N)=O)[C@@H](OC)/C=C\C=C(/C)C(=O)NC(=CC1=O)C2=O [Tanespimycin] (first compound 0.2 µM, partner dose 0.002 µM) | 188% | 51.2% | 22.6% | 93.7% | 118% | 88.9% | 150% | 107% | 99.9% | 45.6% | 43.4% | 44.9% | 58.5% | 279% | 62.8% | 118% | 70.3%
Nc1ccn([C@@H]2O[C@H](CO)[C@@H](O)C2(F)F)c(=O)n1 [gemcitabine] + Cn1cc(/C=C2\C(=O)Nc3cccnc32)c2ccccc21 [GW441756] (first compound 0.0004 µM, partner dose 0.4 µM) | 36.2% | 73.2% |  | 151% | 97.5% | 135% | 81% | 164% |  | 129% | 187% | 43% | 132% | 101% | 70% | 116% | 
O=C(O)[C@@H]1[O][Sb](=[O])([O][Sb]2(=[O])[O][C@H]([C@H](O)CO)[C@H](O)[C@H](C(=O)O)[O]2)[O][C@H]([C@H](O)CO)[C@@H]1O (some centres not stated) [stibogluconate] + N#Cc1c(O)c2c(-c3ccc(-c4ccccc4O)cc3)csc2[nH]c1=O [A769662] (first compound 2 µM, partner dose 2 µM) | 27.1% | 72.7% |  | 87% | 67.4% | 94.3% | 74.2% | 82% |  | 81% | 134% | 109% | 148% | 46.1% | 133% | 80.5% | 
O=C(O)c1ccc2c(c1)nc(Nc1cccc(Cl)c1)c1ccncc12 + c1cc(-c2cnn3cc(-c4ccc(OCCN5CCCCC5)cc4)cnc23)ccn1 [Dorsomorphin] (first compound 0.4 µM, partner dose 0.4 µM) | 17.5% | 198% |  | 146% | 86% | 120% | 21.5% | 146% |  | 184% | 68.8% | 256% | 83.8% | 104% | 67.7% | 57% | 
C[C@@H](Oc1cc(-c2cnn(C3CCNCC3)c2)cnc1N)c1c(Cl)ccc(F)c1Cl [Crizotinib] + Nc1nc(F)nc2c1ncn2[C@@H]1O[C@H](CO)[C@@H](O)[C@@H]1O [fludarabine] (first compound 0.2 µM, partner dose 0.2 µM) | 43% | 96.4% | 4840% | 69.9% | 94.9% | 97.5% | 103% | 104% | 191% | 104% | 135% | 200% | 139% | 116% | 33.6% | 111% | 48.4%
Cc1cc(Nc2cc(N3CCN(C)CC3)nc(/C=C/c3ccccc3)n2)n[nH]1 + Cn1c(Nc2ccc(C(F)(F)F)cc2)nc2cc(Oc3ccnc(-c4ncc(C(F)(F)F)[nH]4)c3)ccc21 [CHIR265] (first compound 0.04 µM, partner dose 0.08 µM) | 202% | 193% | 302% | 96.3% | 44.9% | 91.2% | 77.9% | 119% | 35.8% | 99.8% | 105% | 204% | 106% | 123% | 191% | 120% | 94.6%
CNC(=O)c1cc(Oc2ccc(NC(=O)Nc3ccc(Cl)c(C(F)(F)F)c3)cc2)ccn1 [sorafenib] + CC(C)CCN1c2nc(Nc3cc(F)c(O)c(F)c3)ncc2N(C)C(=O)C1C [BID1870] (first compound 0.4 µM, partner dose 0.2 µM) | 39.2% | 39.7% |  | 17.5% | 102% | 118% | 62.2% | 100% |  | 70.2% | 72.3% | 65.1% | 82.9% | 71.4% | 33.9% | 88.3% | 
CO[C@H]1C[C@@H]2CC[C@@H](C)[C@@](O)(O2)C(=O)C(=O)N2CCCC[C@H]2C(=O)O[C@H]([C@H](C)C[C@@H]2CC[C@@H](OCCO)[C@H](OC)C2)CC(=O)[C@H](C)/C=C(\C)[C@@H](O)[C@@H](OC)C(=O)[C@H](C)C[C@H](C)/C=C/C=C/C=C/1C [everolimus] + CC(C)CCN1c2nc(Nc3cc(F)c(O)c(F)c3)ncc2N(C)C(=O)C1C [BID1870] (first compound 0.02 µM, partner dose 0.2 µM) | 72.8% | 230% |  | 298% | 242% | 106% | 66.9% | 128% |  | 252% | 110% | 97.7% | 294% | 65.2% | 169% | 132% | 
Cn1c(=O)n(-c2ccc(C(C)(C)C#N)cc2)c2c3cc(-c4cnc5ccccc5c4)ccc3ncc21 + COc1ccc(-c2ccc3c(N4CCOCC4)nc(N4C[C@@H](C)O[C@@H](C)C4)nc3n2)cc1CO [KU0063794] (first compound 0.004 µM, partner dose 0.02 µM) | 55.8% | 97.3% |  | 90.6% | 113% | 87.5% | 71.5% | 113% |  | 110% | 183% | 139% | 156% | 103% | 176% | 131% | 
Cc1cc(Nc2cc(N3CCN(C)CC3)nc(/C=C/c3ccccc3)n2)n[nH]1 + COc1cc2ncnc(Nc3ccc(Oc4ccccc4)cc3)c2cc1OC [SrcI1] (first compound 0.04 µM, partner dose 2 µM) | 43.6% | 288% |  | 85.6% | 142% | 86.1% | 34.8% | 80.9% |  | 74.9% | 166% | 92% | 44.3% | 90.2% | 76% | 130% | 
CC(C)C[C@H](NC(=O)[C@H](Cc1ccccc1)NC(=O)c1cnccn1)B(O)O [Bortezomib] + CCN(CC)CCCCNc1ncc2cc(-c3cc(OC)cc(OC)c3)c(NC(=O)NC(C)(C)C)nc2n1 [PD173074] (first compound 0.001 µM, partner dose 0.1 µM) | 42.5% | 115% |  | 76.6% | 873% | 164% | 160% | 178% |  | 76.8% | 133% | 272% | 1230% | 59.5% | 123% | 125% | 
C=C(c1ccc(C(=O)O)cc1)c1cc2c(cc1C)C(C)(C)CCC2(C)C [Bexarotene] + Nc1ncn([C@H]2C[C@H](O)[C@@H](CO)O2)c(=O)n1 [decitabine] (first compound 2 µM, partner dose 0.1 µM) | 97.9% | 206% | 228% | 70.6% | 136% | 124% | 85.4% | 142% | 66.6% | 161% | 66.8% | 82.3% | 152% | 114% | 76.9% | 66.8% | 329%
CO[C@H]1C[C@@H]2CC[C@@H](C)[C@@](O)(O2)C(=O)C(=O)N2CCCC[C@H]2C(=O)O[C@H]([C@H](C)C[C@@H]2CC[C@@H](OCCO)[C@H](OC)C2)CC(=O)[C@H](C)/C=C(\C)[C@@H](O)[C@@H](OC)C(=O)[C@H](C)C[C@H](C)/C=C/C=C/C=C/1C [everolimus] + CCc1ccc(CCOc2ccc(CC3SC(=O)NC3=O)cc2)nc1 [pioglitazone] (first compound 0.02 µM, partner dose 2 µM) | 55.7% | 40.3% |  | 79.4% | 45.5% | 111% | 70.7% | 187% |  | 225% | 148% | 159% | 130% | 57.2% | 121% | 142% | 

A run of entries of the results above, as a working copy:
Compound | cleaved PARP positive nuclei fraction (A101D) | cleaved PARP positive nuclei fraction (A2058) | cleaved PARP positive nuclei fraction (A375) | cleaved PARP positive nuclei fraction (C32) | cleaved PARP positive nuclei fraction (CBRC008) | cleaved PARP positive nuclei fraction (CBRC014) | cleaved PARP positive nuclei fraction (CBRC016) | cleaved PARP positive nuclei fraction (CBRC017) | cleaved PARP positive nuclei fraction (CBRC034) | cleaved PARP positive nuclei fraction (COLO792) | cleaved PARP positive nuclei fraction (COLO800) | cleaved PARP positive nuclei fraction (COLO829) | cleaved PARP positive nuclei fraction (G361) | cleaved PARP positive nuclei fraction (IPC-298) | cleaved PARP positive nuclei fraction (IST-MEL1) | cleaved PARP positive nuclei fraction (LOXIMVI) | cleaved PARP positive nuclei fraction (MEL-HO)
CO[C@H]1C[C@@H]2CC[C@@H](C)[C@@](O)(O2)C(=O)C(=O)N2CCCC[C@H]2C(=O)O[C@H]([C@H](C)C[C@@H]2CC[C@@H](OCCO)[C@H](OC)C2)CC(=O)[C@H](C)/C=C(\C)[C@@H](O)[C@@H](OC)C(=O)[C@H](C)C[C@H](C)/C=C/C=C/C=C/1C [everolimus] + COCC[n+]1c2c(n(Cc3cnccn3)c1C)C(=O)c1ccccc1C2=O [YM155] (first compound 0.02 µM, partner dose 0.0004 µM) | 125% | 99.9% | 275% | 100% | 319% | 108% | 126% | 178% | 222% | 122% | 236% | 262% | 176% | 142% | 78.5% | 142% | 145%
Nc1ncn([C@H]2C[C@H](O)[C@@H](CO)O2)c(=O)n1 [decitabine] + COc1ccc(COc2ccc(Cc3cnc(N)nc3N)cc2OC)cc1 [GW2580] (first compound 0.1 µM, partner dose 1 µM) | 30.4% | 143% |  | 79.4% | 52.7% | 122% | 135% | 101% |  | 245% | 71.1% | 68.3% | 114% | 303% | 149% | 51.2% | 
